Some entries share one result that the patent states for a list of compounds.
Tested on: A431 cell
Assay: MTT assay, keratinocyte cell line treated with erlotinib or gefitinib plus sn molecules
Assay type: cell-based
Settings: cells treated with erlotinib or gefitinib, FIG. 9A

Compound	protective effect on keratinocyte cell line, MTT (in words)
C#Cc1cccc(N2CC(C)(C)C2=O)c1 [sn2]	protective effect
CNc1cccc(Br)c1 [sn3]	protective effect
NC(=S)Nc1cccc(Br)c1 [sn4]	protective effect
N#Cc1cc(N)ccc1F [sn6]	protective effect

Reference: patent US20250387378A1, “METHODS AND COMPOSITIONS FOR PREVENTING SKIN TOXICITIES CAUSED BY BIOLOGICAL TARGETED CANCER DRUGS” (Hadasit Medical Research Services & Development Limited, priority 2019, published 2025)
